# Results as given in PubChem BioAssay AID328 (DTP/NCI, 2004).
# The list is a part of this screen's results and no random one: it gathers tests that were run many times, whatever their T/C, doses with no T/C, and many T/C values between a quarter and a half above the control. Further doses and runs are listed elsewhere. T/C: endpoint of the treated group in % of that of the vehicle group. Some doses have a count of surviving animals in place of a T/C: the source holds a T/C of zero for them, seemingly a mark for toxic or unscored doses. Some doses without a T/C left all or most animals alive at the check, yet need not have been tolerated: survival well below the control is almost never listed, so the zero probably covers shortened survival too. Survivors were counted at the toxicity check, usually on the fifth day, unless a day is given; later deaths do not show. Schedules are NCI's codes, read here as Q, the interval in days (D) or hours (H), X, the number of doses. Where survival is the endpoint, the PubChem record calls one and a half times the control and up active, and a quarter to a half above the control has no call in these data; cut-offs in other NCI protocols can differ. Some T/C values carry the count of animals alive at the toxicity check (mostly the fifth day); without a count, all were alive then.
# Test system: BDF1 mice, P388 leukemia ip, median survival T/C
# Assay: NCI In Vivo Anticancer Drug Screen. Data for tumor model P388 Leukemia (intraperitoneal) in B6D2F1 (BDF1) mice
# Conditions: T/C endpoint: median survival time, higher T/C = longer survival
# Procedure, shortened: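 Antitumour effect was judged in vivo: survival in drug-treated mice, normalised to that of vehicle-dosed controls, gives the reported T/C.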
# [1] = dose: 200.0 mg/kg/injection, schedule: Q01DX009 (ip), vehicle: saline with Tween-80
# [2] = dose: 100.0 mg/kg/injection, schedule: Q01DX009 (ip), vehicle: saline with Tween-80
# [3] = dose: 400.0 mg/kg/injection, schedule: Q01DX009 (ip), vehicle: Klucel (hydroxypropylcellulose) (HPC)
# [4] = dose: 400.0 mg/kg/injection, schedule: Q04DX003 (ip), vehicle: saline with Tween-80
# [5] = dose: 50.0 mg/kg/injection, schedule: Q01DX009 (ip), vehicle: water
smiles,measurement,setting,value
CC([OH2+])CNCCN.CC([OH2+])CNCCN.O=S(=O)([O-])[O-].[Cu+2] (centres undefined),survivor count,"dose: 50.0 mg/kg/injection, schedule: Q01DX009 (ip), vehicle: saline",3 of 6
same,survivor count,"dose: 100.0 mg/kg/injection, schedule: Q01DX009 (ip), vehicle: saline",0 of 6
same,survivor count,"dose: 200.0 mg/kg/injection, schedule: Q01DX009 (ip), vehicle: saline",0 of 6
O=[N+]([O-])c1cc([N+](=O)[O-])c2ccccc2c1NS(=O)(=O)c1ccc(Cl)c(Cl)c1,survivor count,[1],1 of 6
Cc1ccc(S(=O)(=O)Nc2ccc([N+](=O)[O-])cc2[N+](=O)[O-])cc1,survivor count,[2],3 of 6
CCOC(=O)C1NC(=S)NCC1=O (centres undefined),survivor count,[3],1 of 3
CCC(=O)NC(C(=O)NC(C(=O)NC(CC(C)C)C(O)CC(=O)NC(C)C(=O)NC(CC(C)C)C(O)CC(=O)O)C(C)C)C(C)C (centres undefined),survivor count,[1],3 of 6
CS(=O)(=O)c1nc(N)nc2nc[nH]c12,survivor count,"dose: 400.0 mg/kg/injection, schedule: Q01DX009 (ip), vehicle: saline",1 of 6
CC12NC(=O)NC1(C)NC(=O)N2 (centres undefined),survivor count,[4],2 of 6
CC(=O)N1C(=O)NC(=O)C1(C)c1ccc(Cl)s1 (centres undefined),survivor count,[4],6 of 6
O=[N+]([O-])c1ccccc1O,survivor count,[2],6 of 6
same,survivor count,[1],6 of 6
same,survivor count,"dose: 400.0 mg/kg/injection, schedule: Q01DX009 (ip), vehicle: saline with Tween-80",4 of 6
C[N+](C)(C)CCC[n+]1ccc(CCn2ccc3ccccc32)cc1,survivor count,"dose: 200.0 mg/kg/injection, schedule: Q01DX001 (ip), vehicle: saline",0 of 6
O=c1[nH]c2nccnc2[nH]1,survivor count,"dose: 12.5 mg/kg/injection, schedule: Q01DX009 (ip), vehicle: water",6 of 6
same,survivor count,"dose: 25.0 mg/kg/injection, schedule: Q01DX009 (ip), vehicle: water",6 of 6
same,T/C,[5],129 % of control
same,survivor count,[5],6 of 6
same,survivor count,"dose: 200.0 mg/kg/injection, schedule: Q01DX009 (ip), vehicle: water",6 of 6
same,survivor count,"dose: 400.0 mg/kg/injection, schedule: Q01DX009 (ip), vehicle: water",6 of 6
COC1C(=O)CCC2(CO2)C1(O)C1(C)OC1CCC(C)C (centres undefined),survivor count,"dose: 175.0 mg/kg/injection, schedule: Q01DX009 (ip), vehicle: saline with Tween-80",2 of 3
same,survivor count,"dose: 350.0 mg/kg/injection, schedule: Q01DX009 (ip), vehicle: saline with Tween-80",0 of 3
FC(F)(F)c1nc2nc(Cl)c(Cl)nc2s1,survivor count,"dose: 25.0 mg/kg/injection, schedule: Q01DX009 (ip), vehicle: other",3 of 6
same,survivor count,"dose: 50.0 mg/kg/injection, schedule: Q01DX009 (ip), vehicle: other",5 of 6
C[C@]12CC[C@H]3[C@@H](CC[C@]4(O)C[C@@H](O)CC[C@]34C=O)[C@@]1(O)CC[C@@H]2C1=CC(=O)OC1,survivor count,"dose: 50.0 mg/kg/injection, schedule: Q01DX010 (ip), vehicle: carboxymethylcellulose (CMC)",3 of 6
same,survivor count,"dose: 100.0 mg/kg/injection, schedule: Q01DX009 (ip), vehicle: Klucel (hydroxypropylcellulose) (HPC)",3 of 6
same,T/C,"dose: 200.0 mg/kg/injection, schedule: Q01DX009 (ip), vehicle: Klucel (hydroxypropylcellulose) (HPC)",130 % of control [5 of 6 alive]
Cc1n(C(C)C)c2c([n+]1C)C(=O)c1ccccc1C2=O,survivor count,"dose: 5.0 mg/kg/injection, schedule: Q01DX009 (ip), vehicle: alcohol",0 of 6
C[n+]1ccc2ccccc2c1,survivor count,"dose: 200.0 mg/kg/injection, schedule: Q04DX003 (ip), vehicle: saline",3 of 6
[O-][N+](=Nc1cccc(Cl)c1)c1cccc(Cl)c1,T/C,[2],125 % of control
CCCn1cnc2c(SCc3ccccc3Cl)nc(N)nc21,survivor count,[3],6 of 6
CC1=C2CC(C)(C)/C=C\C(=O)/C(C)=C\C3=C[C@H](C)C[C@]3(O2)C1=O,T/C,"dose: 12.0 mg/kg/injection, schedule: Q01DX010 (ip), vehicle: saline",145 % of control
same,survivor count,"dose: 16.0 mg/kg/injection, schedule: Q01DX010 (ip), vehicle: carboxymethylcellulose (CMC)",3 of 6
same,T/C,"dose: 18.0 mg/kg/injection, schedule: Q01DX010 (ip), vehicle: saline",140 % of control
same,T/C,"dose: 24.0 mg/kg/injection, schedule: Q01DX010 (ip), vehicle: saline",138 % of control
same,T/C,"dose: 27.0 mg/kg/injection, schedule: Q01DX010 (ip), vehicle: saline",145 % of control
same,survivor count,"dose: 36.0 mg/kg/injection, schedule: Q01DX010 (ip), vehicle: saline",6 of 6
same,survivor count,"dose: 54.0 mg/kg/injection, schedule: Q01DX010 (ip), vehicle: saline",2 of 6
CC1CN(Cc2ccccc2)CC(C)N1 (centres undefined),survivor count,"dose: 400.0 mg/kg/injection, schedule: Q04DX003 (ip), vehicle: water",0 of 6
